Some of the results follow. Shown are side measurements of this screen, not its main read-out; they come without a call. The list favours compounds with an active or inconclusive main result. The note in brackets gives the kind of curve behind each potency; many fits are weak.
Assay: qHTS Assay for Lipid Storage Modulators in Drosophila S3 Cells;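 for cell number change: cells counted by Cell Tracker Red CMTPX staining in the red channel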
Details: BODIPY lipid droplet fluorescence, 18-24 h; for cell number change: measured here: cell count max response, cells fed with added oleic acid
In short: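 Drosophila S3 cells got compounds at several concentrations plus oleic acid (400 uM solution). Laser-scanning cytometry with 488 nm excitation read lipid droplets at 500-530 nm and cells at 575-640 nm. Percent activity was relative to 20 uM Triacsin C.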

[1] = measured here: lipid fluorescence (Fed channel) AC50, cells fed with added oleic acid
[2] = measured here: cell number channel AC50, cells fed with added oleic acid

Compound | cell number change | AC50 [1] | AC50 [2]
CCN1CCN(S(=O)(=O)c2ccc(Cl)c(C(=O)NC(C)(C)C)c2)CC1 | -2.76% | 0.651 µM [falling, single point] | 
FC(F)(F)c1ccc(CN2CCCCCC2)cc1 | -11.3% | 6.51 µM [falling, single point] | 0.58 µM [falling, full curve, poor fit]
CCOc1ccccc1NC(=O)COc1coc(CN2CCc3ccccc32)cc1=O | 32.7% |  | 29.1 µM [rising, single point]
CCOC(=O)NC(=O)CSc1nc(-c2ccc(C)c(C)c2)cn1-c1ccccc1 |  |  | 6.51 µM [falling, single point]
CCC[N+]1(CC#CC(O)(c2ccccc2)C2CCCCC2)CCCCC1 (configuration not stated) | -8.75% |  | 
CC1CCC(NC(=O)c2cc(C3CC3)nn2-c2ccccc2)CC1 (configuration not stated) | -8.95% |  | 
COc1ccc(C(=O)Oc2cc(N)n(S(=O)(=O)c3ccccc3)n2)cc1 | 6.22% | 6.51 µM [falling, single point] | 
CCN1CCN(c2cc(C)c3cc(NC(=S)N4CC(C)CC(C)C4)ccc3n2)CC1 (configuration not stated) | 9.62% |  | 
Cc1[nH]c(=O)[nH]c(=O)c1S(=O)(=O)N1CCCC(C(=O)NCc2ccc3c(c2)OCO3)C1 (configuration not stated) | 44.2% | 5.17 µM [rising, single point] | 6.51 µM [rising, single point]
ON(Cc1c(F)cccc1Cl)Cc1c(F)cccc1Cl | 48% | 29.1 µM [rising, single point] | 14.6 µM [rising, single point]
COc1nnc(-c2ccc(N3CCOCC3)c(NC(=O)c3ccco3)c2)c2ccccc12 |  | 0.731 µM [rising, full curve] | 
Cc1ccc(-n2sc3ccccc3c2=O)cc1 | -66.2% | 3.26 µM [falling, full curve] | 3.26 µM [falling, full curve]
O=C(Nc1ccccc1Cc1ccccc1)C1CC(=O)N(c2ccc3c(c2)OCCO3)C1 (configuration not stated) |  | 18.4 µM [rising, partial curve] | 
O=C(Oc1ccc(Cl)cc1)c1ccc2nccnc2c1 | -66.3% | 29.1 µM [falling, single point] | 29.1 µM [falling, single point]
O=C(NCC#CCOCc1ccccc1)c1ccccc1 | -7.08% | 6.51 µM [rising, single point] | 
Cc1ccc(S(=O)(=O)CCN2CCC(O)(c3ccccc3)CC2)cc1 | -14.8% |  | 
O=C(CSc1nnc(COc2cccc3ccccc23)o1)N1c2ccccc2CCc2ccccc21 | 2.74% | 2.06 µM [rising, partial curve] | 

Look-ups from the results shown:
AC50 [1], `ON(Cc1c(F)cccc1Cl)Cc1c(F)cccc1Cl` is entered as 29.1 µM [rising, single point]
cell number change, `COc1ccc(C(=O)Oc2cc(N)n(S(=O)(=O)c3ccccc3)n2)cc1` is entered as 6.22%
